Results are given in words; binding and its absence hold for the method and conditions named. Binding can be weak; no strength is given.
Molecular target: ChPhb1 (yeast two-hybrid fusion) (C. higginsianum) (UniProt H1VPS8)
Assay: two-hybrid

Protein sequences, listed by entry. Tags and fused reporters are not part of them. Lines headed by an entry give the natural chain unless they say otherwise; changes in a name come on top.
UniProt H1VPS8: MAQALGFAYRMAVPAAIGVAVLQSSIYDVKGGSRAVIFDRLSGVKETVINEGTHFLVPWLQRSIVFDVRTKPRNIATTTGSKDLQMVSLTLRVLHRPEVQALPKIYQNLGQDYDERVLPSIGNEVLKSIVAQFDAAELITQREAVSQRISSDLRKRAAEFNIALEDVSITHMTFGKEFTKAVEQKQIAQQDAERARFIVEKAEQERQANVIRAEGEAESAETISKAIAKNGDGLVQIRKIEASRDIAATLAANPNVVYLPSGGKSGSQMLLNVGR
UniProt H1VAN0: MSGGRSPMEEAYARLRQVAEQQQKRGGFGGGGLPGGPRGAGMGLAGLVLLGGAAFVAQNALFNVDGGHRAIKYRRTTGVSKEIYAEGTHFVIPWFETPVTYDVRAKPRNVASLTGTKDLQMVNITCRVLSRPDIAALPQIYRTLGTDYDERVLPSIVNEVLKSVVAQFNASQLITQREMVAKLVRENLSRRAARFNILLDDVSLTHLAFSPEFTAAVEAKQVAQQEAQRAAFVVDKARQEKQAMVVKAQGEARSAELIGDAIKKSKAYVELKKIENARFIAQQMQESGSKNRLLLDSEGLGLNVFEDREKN

With “ChPhb2 (yeast two-hybrid fusion) (from UniProt H1VAN0)” the binding was “binds”.
